# According to PubChem BioAssay AID248 (DTP/NCI, 2004):
# The list shows only some results of the screen, not a fair sample: it is rich in T/C values a quarter to a half above the control, in often repeated tests (any T/C) and in doses without a T/C. Further doses and runs are listed elsewhere. T/C is the treated group as % of the vehicle group. Some entries give survivors of the animals treated and no T/C: the source holds a T/C of zero for them, seemingly a mark for toxic or unscored doses. Some doses without a T/C left all or most animals alive at the check, yet need not have been tolerated: survival well below the control is almost never listed, so the zero probably covers shortened survival too. Counts of survivors are from the toxicity check (mostly the fifth day) where no day follows; animals may have died later. Schedule codes are those of the source, read here as Q, the interval in days (D) or hours (H), X, the number of doses. Some molecules as drawn cover several salts, stereoisomers or complexes of the source; a dose is that of the sample tested. Some entries were tested several times; their values stand side by side, smallest first. Some schedule codes hold Z or #, which are not explained here. Where survival is the endpoint, this PubChem deposit counts one and a half times the control or more as active, and values a quarter to a half above the control carry no call in these data; other NCI protocols may use other cut-offs. Some T/C values are followed by the survivors on the day toxicity was checked, most often the fifth; without a count, all were alive then.
# Test system: L1210 leukemia ip in BDF1 mice, survival T/C
# Assay: NCI In Vivo Anticancer Drug Screen. Data for tumor model L1210 Leukemia (intraperitoneal) in B6D2F1 (BDF1) mice
# Details: T/C endpoint: mean survival time, higher T/C = longer survival
# [1] = dose: 50.0 mg/kg/injection, schedule: Q01DX009 (ip), vehicle: saline
# [2] = dose: 200.0 mg/kg/injection, schedule: Q01DX009 (ip), vehicle: Klucel (hydroxypropylcellulose) (HPC)
# [3] = dose: 400.0 mg/kg/injection, schedule: Q04DX003 (ip), vehicle: Klucel (hydroxypropylcellulose) (HPC)
# [4] = dose: 400.0 mg/kg/injection, schedule: Q04DX003 (ip), vehicle: saline with Tween-80
# [5] = dose: 400.0 mg/kg/injection, schedule: Q04DX003 (ip), vehicle: saline
# [6] = dose: 100.0 mg/kg/injection, schedule: Q04DX003 (ip), vehicle: saline with Tween-80
# [7] = dose: 200.0 mg/kg/injection, schedule: Q04DX003 (ip), vehicle: saline with Tween-80
# [8] = dose: 100.0 mg/kg/injection, schedule: Q04DX003 (ip), vehicle: saline
# [9] = dose: 200.0 mg/kg/injection, schedule: Q04DX003 (ip), vehicle: saline
# [10] = dose: 400.0 mg/kg/injection, schedule: Q01DX001 (ip), vehicle: saline
# [11] = dose: 15.0 mg/kg/injection, schedule: Q01DX Z (ip), vehicle: carboxymethylcellulose (CMC)
# [12] = dose: 400.0 mg/kg/injection, schedule: Q01DX009 (ip), vehicle: Klucel (hydroxypropylcellulose) (HPC)
smiles,measurement,setting,value
Cc1ccc(S(=O)(=O)OCCN(CCOS(=O)(=O)c2ccc(C)cc2)c2ccc(F)cc2)cc1,T/C,"dose: 2.9 mg/kg/injection, schedule: Q01DX009 (ip), vehicle: saline",127 % of control
same,T/C,"dose: 4.4 mg/kg/injection, schedule: Q01DX009 (ip), vehicle: saline",131 % of control
same,T/C,"dose: 6.6 mg/kg/injection, schedule: Q01DX009 (ip), vehicle: saline",131 % of control
same,T/C,"dose: 10.0 mg/kg/injection, schedule: Q01DX009 (ip), vehicle: saline",134 and 142 % of control
same,T/C,"dose: 14.0 mg/kg/injection, schedule: Q01DX009 (ip), vehicle: saline",136 % of control
same,T/C,"dose: 16.0 mg/kg/injection, schedule: Q01DX009 (ip), vehicle: saline",137 % of control
same,T/C,"dose: 22.0 mg/kg/injection, schedule: Q01DX009 (ip), vehicle: acetone",130 % of control
same,T/C,"dose: 23.0 mg/kg/injection, schedule: Q01DX009 (ip), vehicle: other",126 % of control
same,T/C,"dose: 35.0 mg/kg/injection, schedule: Q01DX009 (ip), vehicle: acetone",133 % of control
same,T/C,"dose: 35.0 mg/kg/injection, schedule: Q01DX009 (ip), vehicle: other",126 % of control
same,T/C,"dose: 50.0 mg/kg/injection, schedule: Q01DX009 (ip), vehicle: acetone",133 % of control
same,T/C,[1],147 % of control
same,T/C,"dose: 53.0 mg/kg/injection, schedule: Q01DX009 (ip), vehicle: saline",133 % of control [5 of 6 alive]
same,T/C,"dose: 79.0 mg/kg/injection, schedule: Q01DX009 (ip), vehicle: saline",137 % of control
same,survivor count,"dose: 115.0 mg/kg/injection, schedule: Q01DX009 (ip), vehicle: saline",5 of 6
same,survivor count,"dose: 170.0 mg/kg/injection, schedule: Q01DX009 (ip), vehicle: saline",3 of 6
same,survivor count,"dose: 177.0 mg/kg/injection, schedule: Q01DX009 (ip), vehicle: other",6 of 6
same,survivor count,"dose: 266.0 mg/kg/injection, schedule: Q01DX009 (ip), vehicle: other",6 of 6
same,survivor count,"dose: 300.0 mg/kg/injection, schedule: Q01DX009 (ip), vehicle: saline",6 of 6
same,survivor count,"dose: 400.0 mg/kg/injection, schedule: Q01DX009 (ip), vehicle: other",0 of 6
same,survivor count,"dose: 600.0 mg/kg/injection, schedule: Q01DX009 (ip), vehicle: other",5 of 6
C=CC1CN2CCC1CC2C(O)c1ccnc2ccc(OC)cc12 (stereo not drawn) (tested in a mixture with another compound),survivor count,[2],2 of 6
same,survivor count,[3],1 of 6
same,survivor count,[4],6 of 6
same,survivor count,[5],0 of 6
CCCC[P+](CCCC)(CCCC)C(C)C,survivor count,"dose: 50.0 mg/kg/injection, schedule: Q01DX009 (ip), vehicle: saline with Tween-80",2 of 6
same,survivor count,[1],1 of 6
same,survivor count,"dose: 100.0 mg/kg/injection, schedule: Q01DX009 (ip), vehicle: saline",0 of 6
same,survivor count,[6],1 of 6 and 2 of 6
same,survivor count,"dose: 200.0 mg/kg/injection, schedule: Q01DX009 (ip), vehicle: saline",0 of 6
same,survivor count,[7],0 of 6
same,survivor count,[4],0 of 6
Cc1ncc(C(C)(O)c2ccccc2)n1C (stereo not drawn),survivor count,"dose: 400.0 mg/kg/injection, schedule: Q01DX009 (ip), vehicle: saline with Tween-80",0 of 6
CC[C@]1(O)C[C@H](OC2CC(N(C)C)C(OC3CC(O)C(O)C(C)O3)C(C)O2)c2c(cc3c(c2O)C(=O)c2c(O)ccc(O)c2C3=O)[C@H]1C(=O)OC (stereo partly drawn),T/C,"dose: 12.8 mg/kg/injection, schedule: Q01DX001 (ip), vehicle: Klucel (hydroxypropylcellulose) (HPC)",129 % of control
Cc1ccc(NSC(Cl)(Cl)Cl)cc1,survivor count,"dose: 400.0 mg/kg/injection, schedule: Q04DX002 (ip), vehicle: saline with Tween-80",0 of 3
Cc1c([N+](=O)[O-])cc(C(C)(C)C)c(OC(=S)N(C)C)c1[N+](=O)[O-],survivor count,"dose: 50.0 mg/kg/injection, schedule: Q04DX002 (ip), vehicle: saline with Tween-80",3 of 3
C1CC[N+]2(CC1)CCC2,survivor count,[8],0 of 6
same,survivor count,[9],0 of 6
same,survivor count,[10],0 of 6
same,survivor count,[5],1 of 6
O=C(Nc1ccc(C2=NCCN2)c(Cl)c1)c1ccc(C(=O)Nc2ccc(C3=NCCN3)c(Cl)c2)cc1,T/C,[11],135 % of control
same,survivor count,[11],1 of 6
same,T/C,"dose: 60.0 mg/kg/injection, schedule: Q01DX Z (ip), vehicle: carboxymethylcellulose (CMC)",138 % of control [5 of 6 alive]
S=C1NCCS1,survivor count,"dose: 400.0 mg/kg/injection, schedule: Q01DX001 (ip), vehicle: carboxymethylcellulose (CMC)",1 of 4
same,survivor count,[3],3 of 6
CC(=O)[O][Hg][c]1c(N)c(C)cc(C)c1F,survivor count,"dose: 20.0 mg/kg/injection, schedule: Q01DX009 (ip), vehicle: saline",1 of 6
same,survivor count,"dose: 50.0 mg/kg/injection, schedule: Q04DX003 (ip), vehicle: saline",3 of 6
same,survivor count,[8],0 of 6
same,survivor count,[9],3 of 6
same,survivor count,[5],0 of 6
Clc1ccc(C[P+](c2ccccc2)(c2ccccc2)c2ccccc2)c(Cl)c1,survivor count,"dose: 18.0 mg/kg/injection, schedule: Q01DX009 (ip), vehicle: saline",2 of 6
same,survivor count,"dose: 18.75 mg/kg/injection, schedule: Q01DX001 (ip), vehicle: water",2 of 6
same,survivor count,"dose: 25.0 mg/kg/injection, schedule: Q01DX009 (ip), vehicle: saline with Tween-80",0 of 6
same,survivor count,"dose: 36.0 mg/kg/injection, schedule: Q01DX009 (ip), vehicle: saline",0 of 6
same,survivor count,"dose: 37.5 mg/kg/injection, schedule: Q01DX001 (ip), vehicle: water",0 of 6
same,survivor count,"dose: 100.0 mg/kg/injection, schedule: Q01DX001 (ip), vehicle: saline",0 of 6
same,survivor count,[6],0 of 6
same,survivor count,"dose: 200.0 mg/kg/injection, schedule: Q01DX001 (ip), vehicle: saline",0 of 6
same,survivor count,[7],0 of 6
same,survivor count,[10],0 of 6
same,survivor count,[4],0 of 6
CCCCCCCCCCCCCCCCCC[N+]1(Cc2ccccc2)CCOCC1,survivor count,"dose: 200.0 mg/kg/injection, schedule: Q01DX001 (ip), vehicle: Klucel (hydroxypropylcellulose) (HPC)",4 of 6
same,survivor count,"dose: 400.0 mg/kg/injection, schedule: Q01DX001 (ip), vehicle: Klucel (hydroxypropylcellulose) (HPC)",0 of 6
C=C(C)C1Cc2c(ccc3c2OC2COc4cc(OC)c(OC)cc4C2(O)C3=O)O1 (stereo not drawn),survivor count,"dose: 25.0 mg/kg/injection, schedule: Q01DX009 (ip), vehicle: carboxymethylcellulose (CMC)",2 of 6
same,survivor count,"dose: 50.0 mg/kg/injection, schedule: Q01DX009 (ip), vehicle: carboxymethylcellulose (CMC)",0 of 6
same,survivor count,"dose: 100.0 mg/kg/injection, schedule: Q01DX009 (ip), vehicle: Klucel (hydroxypropylcellulose) (HPC)",3 of 6
same,survivor count,[2],0 of 6
same,survivor count,[12],0 of 6
O=S(=O)(n1ccnc1)C(F)(F)F,survivor count,"dose: 80.0 mg/kg/injection, schedule: Q01DX001 (ip), vehicle: saline",1 of 6
CN(C(=O)/C=C/C(=O)O)c1ccccc1,survivor count,"dose: 400.0 mg/kg/injection, schedule: Q01DX009 (ip), vehicle: saline",4 of 6
COc1cc2c(cc1OC)C1CC(=O)C(CC(C)C)CN1CC2 (stereo not drawn),survivor count,[2],4 of 6
same,survivor count,[12],2 of 6
CC1CC(=O)c2c(cc3c(-c4c(O)cc(O)c5c(O)c6c(cc45)OC(C)CC6=O)c(O)cc(O)c3c2O)O1 (stereo not drawn),survivor count,"dose: 400.0 mg/kg/injection, schedule: Q04DX003 (ip), vehicle: carboxymethylcellulose (CMC)",0 of 6
